Experiment [1] has as its target T1, HA-Prl-1 (wild type), Drosophila phosphatase of regenerating liver-1 (Drosophila) (UniProt O61722).
T1 sequence: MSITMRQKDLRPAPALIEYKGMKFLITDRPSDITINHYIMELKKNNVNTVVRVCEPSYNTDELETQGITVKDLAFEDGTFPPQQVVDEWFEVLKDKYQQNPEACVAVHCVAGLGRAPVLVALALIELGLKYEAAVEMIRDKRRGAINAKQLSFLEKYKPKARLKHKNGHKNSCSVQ
As to the kind of experiment: co-IP.

Chains of the proteins cited; added tags and fusions are not shown. Lines headed by an entry give the natural chain unless they say otherwise; changes in a name come on top. Residues count along the entry.
UniProt A0A0B7P9G0, 21-834: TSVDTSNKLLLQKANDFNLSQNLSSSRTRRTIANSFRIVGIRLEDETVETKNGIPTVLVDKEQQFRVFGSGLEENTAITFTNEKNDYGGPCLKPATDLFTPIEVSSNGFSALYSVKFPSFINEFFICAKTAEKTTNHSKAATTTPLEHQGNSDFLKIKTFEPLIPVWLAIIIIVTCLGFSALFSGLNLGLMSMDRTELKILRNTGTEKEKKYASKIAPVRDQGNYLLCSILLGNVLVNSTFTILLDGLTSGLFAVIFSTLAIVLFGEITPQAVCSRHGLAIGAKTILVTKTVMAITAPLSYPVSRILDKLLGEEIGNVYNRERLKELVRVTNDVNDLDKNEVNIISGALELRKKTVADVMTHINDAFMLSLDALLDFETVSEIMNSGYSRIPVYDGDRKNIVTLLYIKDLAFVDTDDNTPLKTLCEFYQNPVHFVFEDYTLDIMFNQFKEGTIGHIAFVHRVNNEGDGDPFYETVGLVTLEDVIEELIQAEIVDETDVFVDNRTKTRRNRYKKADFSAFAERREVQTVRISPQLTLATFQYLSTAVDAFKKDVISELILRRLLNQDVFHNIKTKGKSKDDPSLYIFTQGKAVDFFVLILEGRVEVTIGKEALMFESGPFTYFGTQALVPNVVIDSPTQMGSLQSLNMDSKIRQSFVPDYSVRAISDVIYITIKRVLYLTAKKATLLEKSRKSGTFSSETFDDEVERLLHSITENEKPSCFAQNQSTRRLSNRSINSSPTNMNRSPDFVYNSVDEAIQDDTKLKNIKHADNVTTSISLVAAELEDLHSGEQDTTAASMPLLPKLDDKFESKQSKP

Experiment [2] concerns the target T2, GST-tagged Prl-1-C109S (Drosophila) (UniProt O61722).
T2 sequence: T1 sequence with C109S
As to the kind of experiment: pull-down.

Experiment [3] concerns the target T3, GST-tagged Prl-1 (wild type) (Drosophila) (UniProt O61722).
T3 sequence: T1 sequence
The experiment in a line: pull-down.

In experiment [4] the target is T4, GST-tagged Prl-1-D77A/C109S (Drosophila) (UniProt O61722).
T4 sequence: T1 sequence with D77A, C109S
The experiment in a line: pull-down.

Where a chain is given by its changes, count along the chain named. Results are given in words; binding and its absence hold for the method and conditions named. In cells and extracts the contact can be indirect. Some binding calls cover weakened binding; strength is not graded here. Where a sequence is shown, tags or fusion partners need not be part of it.

As to “Uex (endogenous, S2 cells) (from UniProt A0A0B7P9G0 21-834)”, the binding result in experiment [1] is given as “binds”.

For “Uex (endogenous, adult flies) (from UniProt A0A0B7P9G0 21-834)”, the binding entry in experiment [2], in experiment [3] and in experiment [4] was “binds” each time.
